Data: paper PMC5958099
Results are given in words; binding and its absence hold for the method and conditions named. Binding seen in cells or lysates may run through a third protein. Some entries that bind do so weakly or less than the wild type. Sequences can lack the tags named with a protein.

Protein sequences, listed by entry. Tags and fused reporters are not part of them.
UniProt Q99459: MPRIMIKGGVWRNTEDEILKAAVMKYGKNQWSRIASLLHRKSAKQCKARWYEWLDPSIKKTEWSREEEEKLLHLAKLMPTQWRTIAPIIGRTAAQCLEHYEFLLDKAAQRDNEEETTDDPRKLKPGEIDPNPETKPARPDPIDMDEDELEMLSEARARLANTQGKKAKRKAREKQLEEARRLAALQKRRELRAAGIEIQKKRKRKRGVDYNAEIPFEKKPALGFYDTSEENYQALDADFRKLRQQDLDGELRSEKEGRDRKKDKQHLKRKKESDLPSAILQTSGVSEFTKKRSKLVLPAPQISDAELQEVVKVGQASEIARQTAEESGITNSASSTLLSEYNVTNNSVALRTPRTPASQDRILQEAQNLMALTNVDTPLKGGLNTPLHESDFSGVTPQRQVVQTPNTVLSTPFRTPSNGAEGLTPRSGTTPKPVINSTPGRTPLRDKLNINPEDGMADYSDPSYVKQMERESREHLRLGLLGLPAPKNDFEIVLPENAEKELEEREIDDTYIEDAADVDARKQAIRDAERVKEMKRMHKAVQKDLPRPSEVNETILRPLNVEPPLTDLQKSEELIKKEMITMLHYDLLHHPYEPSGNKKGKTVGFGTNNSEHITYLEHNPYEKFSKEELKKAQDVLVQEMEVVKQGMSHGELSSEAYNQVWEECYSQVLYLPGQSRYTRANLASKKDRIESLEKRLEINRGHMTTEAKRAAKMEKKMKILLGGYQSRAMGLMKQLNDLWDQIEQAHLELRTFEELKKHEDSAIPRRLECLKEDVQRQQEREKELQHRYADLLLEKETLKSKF
UniProt O75643: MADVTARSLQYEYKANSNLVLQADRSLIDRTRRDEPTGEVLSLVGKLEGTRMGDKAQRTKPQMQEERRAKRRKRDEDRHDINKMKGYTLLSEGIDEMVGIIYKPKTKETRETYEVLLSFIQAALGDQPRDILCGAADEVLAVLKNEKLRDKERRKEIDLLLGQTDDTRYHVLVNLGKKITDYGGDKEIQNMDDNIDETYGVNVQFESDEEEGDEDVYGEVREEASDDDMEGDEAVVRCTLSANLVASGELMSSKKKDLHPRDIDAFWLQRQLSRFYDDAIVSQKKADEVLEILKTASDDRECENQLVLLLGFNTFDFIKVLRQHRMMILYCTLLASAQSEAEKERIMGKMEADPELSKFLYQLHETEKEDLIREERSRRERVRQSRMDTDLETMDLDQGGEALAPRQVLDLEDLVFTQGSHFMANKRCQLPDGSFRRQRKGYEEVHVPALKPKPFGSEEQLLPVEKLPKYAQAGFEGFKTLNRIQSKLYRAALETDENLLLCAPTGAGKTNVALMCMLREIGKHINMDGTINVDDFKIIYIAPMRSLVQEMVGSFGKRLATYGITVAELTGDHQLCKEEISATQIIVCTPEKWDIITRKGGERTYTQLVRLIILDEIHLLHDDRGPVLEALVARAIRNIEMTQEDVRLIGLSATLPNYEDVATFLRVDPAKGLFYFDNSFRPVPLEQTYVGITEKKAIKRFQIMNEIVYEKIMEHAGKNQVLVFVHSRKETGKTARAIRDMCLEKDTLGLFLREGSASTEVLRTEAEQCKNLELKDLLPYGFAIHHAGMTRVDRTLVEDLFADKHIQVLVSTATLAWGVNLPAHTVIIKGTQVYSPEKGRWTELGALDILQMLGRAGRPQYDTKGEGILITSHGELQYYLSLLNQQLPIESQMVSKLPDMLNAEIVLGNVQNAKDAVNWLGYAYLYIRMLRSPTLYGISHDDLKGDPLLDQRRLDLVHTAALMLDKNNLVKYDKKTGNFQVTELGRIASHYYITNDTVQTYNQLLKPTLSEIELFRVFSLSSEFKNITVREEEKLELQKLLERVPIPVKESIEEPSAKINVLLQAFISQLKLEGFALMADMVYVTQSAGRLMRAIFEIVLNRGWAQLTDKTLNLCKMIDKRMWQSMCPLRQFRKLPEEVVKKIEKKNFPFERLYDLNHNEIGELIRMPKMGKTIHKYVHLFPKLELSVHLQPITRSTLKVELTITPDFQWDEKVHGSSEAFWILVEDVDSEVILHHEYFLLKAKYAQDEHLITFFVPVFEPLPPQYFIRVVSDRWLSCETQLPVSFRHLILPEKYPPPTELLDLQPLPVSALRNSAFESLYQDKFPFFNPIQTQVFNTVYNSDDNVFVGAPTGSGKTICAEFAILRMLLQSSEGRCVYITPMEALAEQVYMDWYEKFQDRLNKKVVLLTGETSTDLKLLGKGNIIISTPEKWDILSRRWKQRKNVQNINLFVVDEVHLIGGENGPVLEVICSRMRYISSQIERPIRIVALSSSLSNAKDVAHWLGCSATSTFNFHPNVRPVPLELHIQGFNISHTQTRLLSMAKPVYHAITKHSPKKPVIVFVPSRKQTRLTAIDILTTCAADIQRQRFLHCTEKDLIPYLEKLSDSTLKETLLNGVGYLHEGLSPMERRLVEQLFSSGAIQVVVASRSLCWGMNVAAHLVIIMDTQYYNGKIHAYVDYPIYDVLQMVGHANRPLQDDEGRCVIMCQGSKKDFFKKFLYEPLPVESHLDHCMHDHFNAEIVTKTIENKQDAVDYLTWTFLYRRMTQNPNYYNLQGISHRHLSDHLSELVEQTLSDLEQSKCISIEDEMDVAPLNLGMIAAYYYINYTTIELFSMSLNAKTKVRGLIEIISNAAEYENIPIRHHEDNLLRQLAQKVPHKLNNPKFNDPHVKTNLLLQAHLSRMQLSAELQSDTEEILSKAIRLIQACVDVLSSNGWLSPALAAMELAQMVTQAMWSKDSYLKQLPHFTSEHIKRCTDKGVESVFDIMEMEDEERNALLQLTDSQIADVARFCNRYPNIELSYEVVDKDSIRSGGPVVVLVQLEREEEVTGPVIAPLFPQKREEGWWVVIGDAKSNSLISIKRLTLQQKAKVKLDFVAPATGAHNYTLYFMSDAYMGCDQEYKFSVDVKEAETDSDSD

T1: GFP-DNAJC17 fusion protein (mouse) (UniProt Q91WT4)
T1 sequence: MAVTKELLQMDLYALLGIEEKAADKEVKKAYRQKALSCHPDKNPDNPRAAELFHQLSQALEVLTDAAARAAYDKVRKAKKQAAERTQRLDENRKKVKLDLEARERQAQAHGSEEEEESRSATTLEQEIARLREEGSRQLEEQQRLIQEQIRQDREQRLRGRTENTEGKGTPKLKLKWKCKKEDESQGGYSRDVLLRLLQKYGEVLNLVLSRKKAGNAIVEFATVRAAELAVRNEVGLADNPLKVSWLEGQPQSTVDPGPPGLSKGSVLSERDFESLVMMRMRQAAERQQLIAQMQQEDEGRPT


Biological target: T1, GFP-DNAJC17 fusion protein (mouse)
Assay: co-IP; lysates of tetracycline-induced GFP-DNAJC17 and GFP HeLa cells, GFP-Trap_A affinity beads (Chromotek), immunoprecipitates analysed by Western blotting

| binding | Molecule |
| --- | --- |
| binds | CDC5L (from UniProt Q99459 1-802) |
| binds | SNRNP200 (from UniProt O75643 1-2136) |
| binds | PLRG1 (protein, UniProt O43660 1-514) MVEEVQKHSVHTLVFRSLKRTHDMFVADNGKPVPLDEESHKRKMAIKLRNEYGPVLHMPTSKENLKEKGPQNATDSYVHKQYPANQGQEVEYFVAGTHPYPPGPGVALTADTKIQRMPSESAAQSLAVALPLQTKADANRTAPSGSEYRHPGASDRPQPTAMNSIVMETGNTKNSALMAKKAPTMPKPQWHPPWKLYRVISGHLGWVRCIAVEPGNQWFVTGSADRTIKIWDLASGKLKLSLTGHISTVRGVIVSTRSPYLFSCGEDKQVKCWDLEYNKVIRHYHGHLSAVYGLDLHPTIDVLVTCSRDSTARIWDVRTKASVHTLSGHTNAVATVRCQAAEPQIITGSHDTTIRLWDLVAGKTRVTLTNHKKSVRAVVLHPRHYTFASGSPDNIKQWKFPDGSFIQNLSGHNAIINTLTVNSDGVLVSGADNGTMHLWDWRTGYNFQRVHAAVQPGSLDSESGIFACAFDQSESRLLTAEADKTIKVYREDDTATEETHPVSWKPEIIKRKRF |
| binds | XAB2 (protein, UniProt Q9HCS7 1-855) MVVMARLSRPERPDLVFEEEDLPYEEEIMRNQFSVKCWLRYIEFKQGAPKPRLNQLYERALKLLPCSYKLWYRYLKARRAQVKHRCVTDPAYEDVNNCHERAFVFMHKMPRLWLDYCQFLMDQGRVTHTRRTFDRALRALPITQHSRIWPLYLRFLRSHPLPETAVRGYRRFLKLSPESAEEYIEYLKSSDRLDEAAQRLATVVNDERFVSKAGKSNYQLWHELCDLISQNPDKVQSLNVDAIIRGGLTRFTDQLGKLWCSLADYYIRSGHFEKARDVYEEAIRTVMTVRDFTQVFDSYAQFEESMIAAKMETASELGREEEDDVDLELRLARFEQLISRRPLLLNSVLLRQNPHHVHEWHKRVALHQGRPREIINTYTEAVQTVDPFKATGKPHTLWVAFAKFYEDNGQLDDARVILEKATKVNFKQVDDLASVWCQCGELELRHENYDEALRLLRKATALPARRAEYFDGSEPVQNRVYKSLKVWSMLADLEESLGTFQSTKAVYDRILDLRIATPQIVINYAMFLEEHKYFEESFKAYERGISLFKWPNVSDIWSTYLTKFIARYGGRKLERARDLFEQALDGCPPKYAKTLYLLYAQLEEEWGLARHAMAVYERATRAVEPAQQYDMFNIYIKRAAEIYGVTHTRGIYQKAIEVLSDEHAREMCLRFADMECKLGEIDRARAIYSFCSQICDPRTTGAFWQTWKDFEVRHGNEDTIKEMLRIRRSVQATYNTQVNFMASQMLKVSGSATGTVSDLAPGQSGMDDMKLLEQRAEQLAAEAERDQPLRAQSKILFVRSDASREELAELAQQVNPEEIQLGEDEDEDEMDLEPNEVRLEQQSVPAAVFGSLKED |
